Results from one PubChem assay

Data taken from PubChem BioAssay AID1345084, deposited by NCATS (2018).

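A panel of named gynecologic cancer cell lines (ovarian and cervical) is scored for viability by ATP-dependent luminescence after 48 hours of compound exposure.
Each compound was tested at five concentrations, including 0.46, 2.3 and 57.5 µM as the top dose.
The number is the fitted AC50 potency, and a lower value means stronger cell killing.
Calls follow an activity score built from curve class and fitted AC50: 40 to 100 is active, 1 to 39 is inconclusive, and 0 is inactive.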

Values are in nM.
Every entry below has the call inconclusive.
These entries are mostly ones the record files as inconclusive; other results of the assay are not listed here.
A potency from a partial, single-point or poor curve is only a rough figure.
Activity scores are not listed here.

{"compound": "COC(=O)c1[nH]c(=O)c2ccccc2c1-c1ccc[nH]1", "tested on / at": "Tov112D", "potency (nM)": "10000", "curve": "cytotoxic, partial curve, poor fit"}
{"compound": "COC(=O)c1[nH]c(=O)c2ccccc2c1-c1ccc[nH]1", "tested on / at": "Hek293T; control line for the selectivity index", "potency (nM)": "39810", "curve": "cytotoxic, single point"}
{"compound": "Clc1ccccc1CNCC1CCC(CNCc2ccccc2Cl)CC1", "stereo": "configuration not stated", "tested on / at": "SKOV3", "potency (nM)": "5012", "curve": "cytotoxic, partial curve, poor fit"}
{"compound": "Clc1ccccc1CNCC1CCC(CNCc2ccccc2Cl)CC1", "stereo": "configuration not stated", "tested on / at": "CAOV3", "potency (nM)": "39810", "curve": "cytotoxic, single point"}
{"compound": "Clc1ccccc1CNCC1CCC(CNCc2ccccc2Cl)CC1", "stereo": "configuration not stated", "tested on / at": "JEG-3", "potency (nM)": "39810", "curve": "cytotoxic, single point"}
{"compound": "Clc1ccccc1CNCC1CCC(CNCc2ccccc2Cl)CC1", "stereo": "configuration not stated", "tested on / at": "Es-2", "potency (nM)": "39810", "curve": "cytotoxic, single point"}
{"compound": "Nc1ccc(Cl)cc1", "tested on / at": "OV90", "potency (nM)": "15848", "curve": "cytotoxic, single point"}
{"compound": "CCC(C)CC(=O)OC1C(=O)C(CO)=CC(O)C1C(C)C", "stereo": "configuration not stated", "tested on / at": "Tov112D", "potency (nM)": "39810", "curve": "cytotoxic, single point"}
{"compound": "CCC(C)CC(=O)OC1C(=O)C(CO)=CC(O)C1C(C)C", "stereo": "configuration not stated", "tested on / at": "Hek293T; control line for the selectivity index", "potency (nM)": "39810", "curve": "cytotoxic, single point"}
{"compound": "CCC(C)CC(=O)OC1C(=O)C(CO)=CC(O)C1C(C)C", "stereo": "configuration not stated", "tested on / at": "SKOV3", "potency (nM)": "35481", "curve": "cytotoxic, single point"}
{"compound": "CCC(C)CC(=O)OC1C(=O)C(CO)=CC(O)C1C(C)C", "stereo": "configuration not stated", "tested on / at": "HeLa", "potency (nM)": "28183", "curve": "cytotoxic, single point"}
{"compound": "CCC(C)CC(=O)OC1C(=O)C(CO)=CC(O)C1C(C)C", "stereo": "configuration not stated", "tested on / at": "OV90", "potency (nM)": "31622", "curve": "cytotoxic, single point"}
{"compound": "CCCCCCCCCCCCCCCCOP(=O)([O-])OCC[N+](C)(C)C", "tested on / at": "HeLa", "potency (nM)": "39810", "curve": "cytotoxic, partial curve, poor fit"}
{"compound": "CC1(N2CCC(n3c([C@@H]4CCCNC4)nc4ccccc43)CC2)CCCCCCC1", "tested on / at": "C33A", "potency (nM)": "39810", "curve": "cytotoxic, single point"}
{"compound": "CC1(N2CCC(n3c([C@@H]4CCCNC4)nc4ccccc43)CC2)CCCCCCC1", "tested on / at": "CASKI", "potency (nM)": "31622", "curve": "cytotoxic, single point"}
{"compound": "CC1(N2CCC(n3c([C@@H]4CCCNC4)nc4ccccc43)CC2)CCCCCCC1", "tested on / at": "HeLa", "potency (nM)": "31622", "curve": "cytotoxic, single point"}
{"compound": "CC1(N2CCC(n3c([C@@H]4CCCNC4)nc4ccccc43)CC2)CCCCCCC1", "tested on / at": "Hek293T; control line for the selectivity index", "potency (nM)": "19952", "curve": "cytotoxic, single point"}
{"compound": "Cc1ccc(NC(=O)c2ccc(CN3CCNCC3)cc2)cc1Nc1nccc(-c2cccnc2)n1", "tested on / at": "C33A", "potency (nM)": "17782", "curve": "cytotoxic, partial curve, poor fit"}
{"compound": "Cc1ccc(NC(=O)c2ccc(CN3CCNCC3)cc2)cc1Nc1nccc(-c2cccnc2)n1", "tested on / at": "SKOV3", "potency (nM)": "17782", "curve": "cytotoxic, partial curve, poor fit"}
{"compound": "Cc1ccc(NC(=O)c2ccc(CN3CCNCC3)cc2)cc1Nc1nccc(-c2cccnc2)n1", "tested on / at": "HeLa", "potency (nM)": "14125", "curve": "cytotoxic, partial curve, poor fit"}
{"compound": "NC(=O)c1cccc(-c2cc(OC(=O)NC3CCCCC3)ccc2O)c1", "tested on / at": "Tov112D", "potency (nM)": "8912"}
{"compound": "COc1cc2c(cc1OC)[C@@H]1[C@H](O)[C@@H](OC)C=C3CCN(C2)[C@H]31", "tested on / at": "Tov112D", "potency (nM)": "12589", "curve": "cytotoxic, partial curve"}

For reference, 2 entries once more:

* CCC(C)CC(=O)OC1C(=O)C(CO)=CC(O)C1C(C)C (configuration not stated) [Tov112D] : potency 39810 nM (cytotoxic, single point)
* NC(=O)c1cccc(-c2cc(OC(=O)NC3CCCCC3)ccc2O)c1 [Tov112D] : potency 8912 nM